Values from PubChem BioAssay AID743121 (NCATS, 2013)

Aim: 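Partners whose loss is lethal together with topoisomerase I blockade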 (primary screen)
System: MDA-MB-231 cells, a human breast cancer line
Reagent: single siRNA against human genes, 20 nM siRNA (0.8 pmol per well)
Time to read-out: 120 h (drug added 48 h after transfection, read 72 h later)
Treatment: camptothecin 20 nM (about EC30) for 72 h; vehicle 0.1% DMSO in parallel plates
Measured: 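Cell viability by ATP luminescence (CellTiter-Glo) as % of non-targeting siRNA wells, and the log2 ratio of viability without drug over viability with camptothecin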
Direction: log2 vehicle/camptothecin viability: higher = stronger sensitisation to camptothecin; viability with camptothecin: higher = more viable cells
Rule for the call: 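Each gene scored by redundant siRNA activity (RSA) over its individual siRNA ratios; a gene is called active at p < 0.001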
The whole screen tested about 26,000 reagents; below is a random part of them. Over the whole deposit, 167 (0.63%) were called active. 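Calls are per gene from RSA p-values that are not deposited; an individual active-marked siRNA can sensitise only weakly.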 Reagents against one gene are numbered here. Further read-outs or replicates are left out here.

Gene | reagent | log2 vehicle/camptothecin viability | viability with camptothecin (% of control) | Call
AGRP | 1 | 1.26 | 21.2 | active
AGRP | 2 | -0.533 | 49 | active
AGRP | 3 | 1.22 | 26.2 | active
GLRB | 1 | -0.139 | 126 | inactive
GLRB | 2 | -0.0918 | 85.1 | inactive
GLRB | 3 | 0.558 | 42.2 | inactive
ABCB5 | 1 | 0.123 | 70.1 | inactive
ABCB5 | 2 | -0.14 | 104 | inactive
ABCB5 | 3 | -0.143 | 71.4 | inactive

4 entries from above, set out differently.
Gene,reagent,log2 vehicle/camptothecin viability,viability with camptothecin (% of control),Call
AGRP,1,1.26,21.2,active
AGRP,2,-0.533,49,active
AGRP,3,1.22,26.2,active
GLRB,1,-0.139,126,inactive

More results follow:
Gene | reagent | log2 vehicle/camptothecin viability | viability with camptothecin (% of control) | Call
TRIB1 | 1 | -0.193 | 18.9 | inactive
TRIB1 | 2 | 0.0351 | 70.5 | inactive
TRIB1 | 3 | -0.247 | 75.4 | inactive
TRIB1 | 4 | -0.405 | 11.8 | inactive
TRIB1 | 5 | -0.193 | 52.6 | inactive
THBS4 | 1 | 0.24 | 68.9 | inactive
THBS4 | 2 | -0.202 | 113 | inactive
THBS4 | 3 | 0.35 | 63.6 | inactive
THBS4 | 4 | 0.037 | 78 | inactive
RBBP4 | 1 | -0.07 | 78.3 | inactive
RBBP4 | 2 | 0.0479 | 67.2 | inactive
RBBP4 | 3 | -0.136 | 109 | inactive
RBBP4 | 4 | -0.139 | 91.9 | inactive
STK4 | 1 | 0.117 | 89.3 | inactive
STK4 | 2 | 0.19 | 71.5 | inactive
STK4 | 3 | 0.118 | 88.9 | inactive
STK4 | 4 | -0.307 | 72.7 | inactive
KCNJ9 | 1 | -0.17 | 94.1 | inactive
KCNJ9 | 2 | 0.217 | 35.8 | inactive
KCNJ9 | 3 | 0.25 | 27.8 | inactive
